Measured data: PubChem BioAssay AID1224828 (NIAID, 2016)
Assay: 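Find genes required for NF-kappaB p65 moving into the nucleus after LPS in mouse macrophages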 (primary screen). System: mouse RAW264.7 G9 macrophage reporter cells (GFP-p65, Tnf promoter-mCherry). Reagents: siRNA pool against mouse genes, 100 nM. Duration: 2 days siRNA transfection, then 40 min LPS before fixation. Conditions: LPS (Salmonella minnesota R595) at 10 ng/ml. Read-out: 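Microscopy ratio of nuclear to perinuclear-ring GFP-p65 signal, scaled to the plate median; gene score is the average of two replicate robust z-scores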. Scale: p65 translocation robust z-score: higher = more nuclear NF-kappaB p65 after LPS than the plate median; nuclear/cytoplasmic p65 ratio: higher = more nuclear NF-kappaB p65. Rule for the call: 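Active if robust z is above 3.3 (negative regulators) or below -1.56, the Tlr4 control median (positive regulators); activity score 50 or more; control wells not called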. Meaning of the calls: active = hit (p65 shift raised or lowered); inactive = no clear change.
Shown is a random part of about 17,000 reagents. Of all reagents, 762 (4.5%) are marked active. 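Active calls include both raised and lowered p65 entry, mostly lowered; wells with fewer than 50 cells lack a z-score.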 Raw values are not corrected between plates. No sequences are given here.

| target | PubChem SID | p65 translocation robust z-score | nuclear/cytoplasmic p65 ratio, rep 1 | nuclear/cytoplasmic p65 ratio, rep 2 | low cell count flag | call |
| --- | --- | --- | --- | --- | --- | --- |
| Or10k2 | SID315479961 | -0.96 | 1.45 | 1.31 | enough cells to score | inactive |
| Treml4 | SID315478382 | -0.33 | 1.33 | 1.4 | enough cells to score | inactive |
| Plin2 | SID315465307 | -0.22 | 1.55 | 1.67 | enough cells to score | inactive |
| Npffr1 | SID315479342 | 0.3 | 1.51 | 1.66 | enough cells to score | inactive |
| Slc25a44 | SID315478710 | -0.4 | 1.24 | 1.52 | enough cells to score | inactive |
| Nat8f3 | SID315475914 | -0.16 | 1.6 | 1.72 | enough cells to score | inactive |
| Akr1b1 | SID315465389 | -0.84 | 1.46 | 1.52 | enough cells to score | inactive |
| Tcstv1a | SID315471215 | -0.47 | 1.3 | 1.14 | enough cells to score | inactive |
| Tcp1 | SID315469632 | 0.1 | 1.52 | 1.55 | enough cells to score | inactive |
| H4c9 | SID315481037 | 1.16 | 1.7 | 1.6 | enough cells to score | inactive |
| H3c7 | SID315480738 | 2.28 | 1.87 | 1.58 | enough cells to score | inactive |
| Rgs7bp | SID315471028 | -0.64 | 1.48 | 1.68 | enough cells to score | inactive |
| Mtx2 | SID315471055 | 0.38 | 1.85 | 1.65 | enough cells to score | inactive |
| Klf17 | SID315475197 | 0.73 | 1.53 | 1.32 | enough cells to score | inactive |
| Ier5 | SID315467377 | -1.54 | 1.4 | 1.24 | enough cells to score | inactive |
| Adamdec1 | SID315471920 | -0.35 | 1.53 | 1.6 | enough cells to score | inactive |
| Tmem123 | SID315474383 | 0.15 | 1.68 | 1.59 | enough cells to score | inactive |
| Trpm6 | SID315478455 | 0.54 | 1.74 | 1.48 | enough cells to score | inactive |
| Syt10 | SID315471253 | 0.95 | 1.46 | 1.32 | enough cells to score | inactive |
| Or6p1 | SID315480405 | 0.98 | 1.75 | 1.46 | enough cells to score | inactive |
| Nol11 | SID315473688 | 0.43 | 1.54 | 1.57 | enough cells to score | inactive |
| Natd1 | SID315470318 | -0.07 | 1.62 | 1.54 | enough cells to score | inactive |
| Dmap1 | SID315472306 | 1.75 | 1.87 | 1.43 | enough cells to score | inactive |
| Trim29 | SID315474481 | -0.04 | 1.36 | 1.11 | enough cells to score | inactive |
| Or8g53 | SID315480265 | 0.15 | 1.34 | 1.26 | enough cells to score | inactive |
| Nmnat3 | SID315474835 | – | 1.35 | 1.27 | fewer than 50 cells per well; well left out of scoring | inactive |
| Gaa | SID315466789 | 0.77 | 1.49 | 1.51 | enough cells to score | inactive |

Next part (6 carried over from the part before).
| target | PubChem SID | p65 translocation robust z-score | nuclear/cytoplasmic p65 ratio, rep 1 | nuclear/cytoplasmic p65 ratio, rep 2 | low cell count flag | call |
| --- | --- | --- | --- | --- | --- | --- |
| Natd1 | SID315470318 | -0.07 | 1.62 | 1.54 | enough cells to score | inactive |
| Dmap1 | SID315472306 | 1.75 | 1.87 | 1.43 | enough cells to score | inactive |
| Trim29 | SID315474481 | -0.04 | 1.36 | 1.11 | enough cells to score | inactive |
| Or8g53 | SID315480265 | 0.15 | 1.34 | 1.26 | enough cells to score | inactive |
| Nmnat3 | SID315474835 | – | 1.35 | 1.27 | fewer than 50 cells per well; well left out of scoring | inactive |
| Gaa | SID315466789 | 0.77 | 1.49 | 1.51 | enough cells to score | inactive |
| Rnf115 | SID315473255 | 0.67 | 1.61 | 1.32 | enough cells to score | inactive |
| 5930422O12Rik | SID315481149 | -0.01 | 1.36 | 1.5 | enough cells to score | inactive |
| Il27ra | SID315470891 | 2.02 | 1.62 | 1.76 | enough cells to score | inactive |
| Il19 | SID315481515 | 0.99 | 1.57 | 1.55 | enough cells to score | inactive |
| Galr2 | SID315466822 | -0.73 | 1.4 | 1.48 | enough cells to score | inactive |
| Trim10 | SID315468990 | – | 1.3 | 1.19 | fewer than 50 cells per well; well left out of scoring | inactive |
| Hace1 | SID315477598 | -0.43 | 1.47 | 1.82 | enough cells to score | inactive |
| Ofcc1 | SID315478177 | 0.52 | 1.78 | 1.61 | enough cells to score | inactive |
| Cspg5 | SID315470728 | 0.19 | 1.66 | 1.75 | enough cells to score | inactive |
| Med24 | SID315470274 | -0.33 | 1.33 | 1.61 | enough cells to score | inactive |
| Lap3 | SID315472758 | -1.39 | 1.31 | 1.18 | enough cells to score | inactive |
| Cma1 | SID315467871 | – | 1.51 | 1.26 | fewer than 50 cells per well; well left out of scoring | inactive |
| Mro | SID315474211 | 0.53 | 2 | 1.56 | enough cells to score | inactive |
| Dlg3 | SID315471031 | -0.68 | 1.68 | 1.3 | enough cells to score | inactive |
| Cd5l | SID315465460 | -2.03 | 1.39 | 1.12 | enough cells to score | active |
| Magoh | SID315467818 | – | 1.64 | 1.65 | fewer than 50 cells per well; well left out of scoring | inactive |
| Uqcc2 | SID315472934 | – | 1.04 | 1.14 | fewer than 50 cells per well; well left out of scoring | inactive |
| A030003K21Rik | SID315475522 | – | 1.18 | 1.21 | fewer than 50 cells per well; well left out of scoring | inactive |
| Cd248 | SID315474055 | -1.68 | 1.39 | 1.45 | enough cells to score | active |
| Or7g29 | SID315480190 | 0.18 | 1.47 | 1.29 | enough cells to score | inactive |
| Ran | SID315468891 | – | 1.35 | 0.954 | fewer than 50 cells per well; well left out of scoring | inactive |
| Clcn2 | SID315465986 | -0.51 | 1.35 | 1.36 | enough cells to score | inactive |
| Rasgef1b | SID315481278 | 1.02 | 1.49 | 1.35 | enough cells to score | inactive |
| Vps33b | SID315479080 | 0.99 | 1.54 | 1.32 | enough cells to score | inactive |
| Zfp869 | SID315472684 | 0.22 | 1.63 | 1.66 | enough cells to score | inactive |
| Slco6b1 | SID315473261 | – | 1.5 | 1.23 | fewer than 50 cells per well; well left out of scoring | inactive |
| Prelid3a | SID315478432 | -2.06 | 1.23 | 1.55 | enough cells to score | active |
| Gast | SID315466835 | 0.34 | 1.46 | 1.43 | enough cells to score | inactive |
| Vmn1r225 | SID315477304 | -1.85 | 1.15 | 1.1 | enough cells to score | active |
| Sec22b | SID315469159 | -0.75 | 1.48 | 1.41 | enough cells to score | inactive |
| Rhox9 | SID315476438 | – | 1.15 | 0.94 | fewer than 50 cells per well; well left out of scoring | inactive |
| Luc7l | SID315472753 | -1.49 | 1.59 | 1.24 | enough cells to score | inactive |
